Assay results published in PMC3493543.
No constants are given. Whether binding was seen depends on the method and setting. Where a sequence is shown, tags or fusion partners need not be part of it.

How the values were obtained:
Assay in all cases: two-hybrid; Matchmaker system; co-transformation of pGBKT7 bait and pGADT7 prey into S. cerevisiae AH109; double transformants from DDO plates re-spotted on QDO plates with x-α-galactosidase (HIS3, ADE2, MEL1 markers)
[1] = biological target: T1, GTF2IRD1 C-terminal truncation TR1 (aa 1-932) fused to the GAL4 DNA-binding domain (human) (UniProt Q9UHL9)
T1 sequence: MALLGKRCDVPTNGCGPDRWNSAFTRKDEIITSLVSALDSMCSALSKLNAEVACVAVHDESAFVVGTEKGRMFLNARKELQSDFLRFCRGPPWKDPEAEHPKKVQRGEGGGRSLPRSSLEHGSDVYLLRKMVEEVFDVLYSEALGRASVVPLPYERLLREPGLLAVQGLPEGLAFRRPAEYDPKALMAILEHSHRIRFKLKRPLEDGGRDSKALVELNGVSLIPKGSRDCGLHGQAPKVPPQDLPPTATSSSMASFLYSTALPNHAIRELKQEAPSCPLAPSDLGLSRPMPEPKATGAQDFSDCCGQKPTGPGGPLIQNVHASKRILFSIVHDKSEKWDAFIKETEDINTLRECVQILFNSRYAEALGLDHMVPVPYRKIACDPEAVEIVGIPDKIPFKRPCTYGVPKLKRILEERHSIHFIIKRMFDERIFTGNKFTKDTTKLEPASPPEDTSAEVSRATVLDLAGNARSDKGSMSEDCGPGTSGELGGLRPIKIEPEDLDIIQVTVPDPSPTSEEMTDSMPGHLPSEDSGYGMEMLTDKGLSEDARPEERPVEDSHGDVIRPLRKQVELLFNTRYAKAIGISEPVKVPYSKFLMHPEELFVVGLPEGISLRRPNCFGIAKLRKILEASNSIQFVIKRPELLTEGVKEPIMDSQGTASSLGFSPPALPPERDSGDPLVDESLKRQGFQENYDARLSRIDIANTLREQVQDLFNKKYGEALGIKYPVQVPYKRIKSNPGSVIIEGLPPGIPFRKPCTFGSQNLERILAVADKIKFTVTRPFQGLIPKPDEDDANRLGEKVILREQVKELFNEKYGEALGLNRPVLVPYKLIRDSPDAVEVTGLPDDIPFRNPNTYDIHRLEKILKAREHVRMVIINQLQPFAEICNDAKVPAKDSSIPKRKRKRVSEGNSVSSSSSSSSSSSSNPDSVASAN

[2] = biological target: T2, GTF2IRD1 C-terminal truncation TR3 (aa 1-787) fused to the GAL4 DNA-binding domain (human) (UniProt Q9UHL9)
T2 sequence: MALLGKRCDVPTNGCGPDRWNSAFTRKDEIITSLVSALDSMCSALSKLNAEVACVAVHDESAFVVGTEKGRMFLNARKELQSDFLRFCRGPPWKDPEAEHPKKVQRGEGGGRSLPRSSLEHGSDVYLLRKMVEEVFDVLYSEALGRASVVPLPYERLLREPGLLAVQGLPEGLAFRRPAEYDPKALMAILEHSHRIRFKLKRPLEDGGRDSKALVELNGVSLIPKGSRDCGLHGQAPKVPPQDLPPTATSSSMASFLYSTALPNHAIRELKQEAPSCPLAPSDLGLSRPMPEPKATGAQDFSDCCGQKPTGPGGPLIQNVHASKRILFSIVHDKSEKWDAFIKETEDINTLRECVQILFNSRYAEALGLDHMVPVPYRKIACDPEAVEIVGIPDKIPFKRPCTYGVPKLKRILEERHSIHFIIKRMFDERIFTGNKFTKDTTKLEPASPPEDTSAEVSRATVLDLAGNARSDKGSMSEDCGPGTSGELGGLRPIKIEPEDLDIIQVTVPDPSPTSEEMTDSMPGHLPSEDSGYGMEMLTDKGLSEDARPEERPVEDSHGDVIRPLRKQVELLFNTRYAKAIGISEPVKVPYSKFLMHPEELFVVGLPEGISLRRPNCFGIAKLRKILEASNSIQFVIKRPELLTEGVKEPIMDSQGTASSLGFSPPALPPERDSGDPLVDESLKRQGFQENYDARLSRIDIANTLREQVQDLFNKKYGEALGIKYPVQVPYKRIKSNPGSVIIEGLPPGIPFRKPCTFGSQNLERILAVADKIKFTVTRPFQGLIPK

[3] = biological target: T3, GTF2IRD1 C-terminal truncation TR2 (aa 1-909) fused to the GAL4 DNA-binding domain (human) (UniProt Q9UHL9)
T3 sequence: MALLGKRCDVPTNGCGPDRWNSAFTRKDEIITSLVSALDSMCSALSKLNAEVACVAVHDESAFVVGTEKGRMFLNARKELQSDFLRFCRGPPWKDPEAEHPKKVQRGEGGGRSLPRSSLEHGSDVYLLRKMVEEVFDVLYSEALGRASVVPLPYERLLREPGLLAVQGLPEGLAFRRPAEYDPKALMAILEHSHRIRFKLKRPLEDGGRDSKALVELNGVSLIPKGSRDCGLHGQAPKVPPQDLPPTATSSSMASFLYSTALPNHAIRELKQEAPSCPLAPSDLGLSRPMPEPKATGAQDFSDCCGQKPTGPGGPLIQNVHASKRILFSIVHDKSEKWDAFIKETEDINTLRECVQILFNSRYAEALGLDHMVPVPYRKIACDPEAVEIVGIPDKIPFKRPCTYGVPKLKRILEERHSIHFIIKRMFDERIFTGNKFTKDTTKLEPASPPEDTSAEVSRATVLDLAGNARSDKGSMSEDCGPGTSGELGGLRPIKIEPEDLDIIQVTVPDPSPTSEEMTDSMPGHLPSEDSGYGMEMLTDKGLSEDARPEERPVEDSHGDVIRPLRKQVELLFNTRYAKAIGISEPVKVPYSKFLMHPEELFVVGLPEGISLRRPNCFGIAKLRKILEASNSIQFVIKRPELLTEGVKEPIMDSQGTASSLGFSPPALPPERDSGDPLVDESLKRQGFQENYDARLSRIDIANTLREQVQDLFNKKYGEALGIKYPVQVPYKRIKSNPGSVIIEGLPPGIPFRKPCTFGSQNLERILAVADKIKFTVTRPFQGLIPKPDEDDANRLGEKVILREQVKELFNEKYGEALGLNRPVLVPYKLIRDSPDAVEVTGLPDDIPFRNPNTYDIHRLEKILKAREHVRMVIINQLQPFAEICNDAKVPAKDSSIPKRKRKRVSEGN

Measured: binding

PIASxβ fused to the GAL4 activation domain (pGADT7-PIASxβ) (from UniProt Q8C5D8-1 1-621) (enzyme)
no binding: all assays above
